Experimental data from PubChem BioAssay AID2685 (National Center for Advancing Translational Sciences (NCATS), 2010).
Some of the results follow. Further columns of the screen follow, without active or inactive calls. Most of these compounds were active or inconclusive in the main read-out, so they are no random draw. Words in brackets tell the shape of the fitted curve; partial curves, single points and poor fits give uncertain potencies.

Test: qHTS Assay for Lipid Storage Modulators in Drosophila S3 Cells;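 on cell number change: cells counted by Cell Tracker Red CMTPX staining in the red channel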
Conditions: BODIPY lipid droplet fluorescence, 18-24 h; for cell number change: measured here: cell count max response, cells fed with added oleic acid
In short: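 Drosophila S3 cells loaded with oleic acid (400 uM, as added) and compounds at several concentrations; lipid droplets imaged by 488-nm laser-scanning cytometry, 500–530 nm intensity and object ratio to cell channel. Percent activity normalized to 20 uM Triacsin C.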

[1] = measured here: lipid fluorescence (Fed channel) AC50, cells fed with added oleic acid
[2] = measured here: cell number channel AC50, cells fed with added oleic acid

Row | SMILES | cell number change [%] | AC50 [1] | AC50 [2]
1 | Cc1cc(C)cc(NC(=O)CSc2nc3ccccc3nc2N2CCCC2)c1 | -12.7 | 16.4 µM [falling, single point] | –
2 | COc1ccc(N2C(=O)CSC2c2cccc(F)c2)cc1 (stereo not drawn) | 100 | – | –
3 | Cc1ccc(N(Cc2ccccc2F)S(C)(=O)=O)cc1C | -12.1 | 0.259 µM [falling, full curve] | –
4 | CCCc1nc(SCC(=O)N2CCC(Cc3ccccc3)CC2)c2c(=O)n(C)c(=O)n(C)c2n1 | -40.7 | – | 9.2 µM [falling, partial curve, poor fit]
5 | O=C(Cn1c(CO)nc2ccccc21)NCc1ccc2c(c1)OCO2 | -40.3 | 29.1 µM [falling, single point] | 29.1 µM [falling, single point]
6 | COCCNC(=S)Nc1cc(OC)c(OC)cc1C#N | – | 0.058 µM [falling, full curve, poor fit] | –
7 | CCC(=O)N1N=C(c2ccc(NS(C)(=O)=O)cc2)CC1c1ccc(C)cc1 (stereo not drawn) | – | 0.58 µM [rising, single point] | –
8 | Cc1ncc(CO)c(CNc2ccc(-c3nc4ccccc4[nH]3)cc2)c1O | 36 | – | 29.1 µM [rising, single point]
9 | COC(=O)C(C)Sc1nnc(Cc2cc(=O)[nH]c(=O)[nH]2)n1-c1cc(C)ccc1C (stereo not drawn) | -2.03 | 0.082 µM [falling, single point] | –
10 | Cc1nc(-c2ccc(S(=O)(=O)N3CCN(Cc4ccccc4)CC3)s2)cs1 | 57.9 | 20.6 µM [rising, single point] | 23.1 µM [rising, single point]
11 | COCCSc1ccccc1C(=O)N1CCN(c2ccccc2OC)CC1 | -64.8 | 18.4 µM [falling, single point] | 18.4 µM [falling, single point]
12 | Cc1cc(=O)n(C)c(=O)n1CCCNc1ccccc1 | – | 0.517 µM [falling, partial curve, poor fit] | 0.58 µM [falling, partial curve, poor fit]
13 | Cc1ccc(S(=O)(=O)NCCCN(C)C)cc1 | 0.481 | 0.13 µM [falling, full curve, poor fit] | –
14 | CCSc1cc(N2CC(C)OC(C)C2)nc(-c2ccccc2Cl)n1 (stereo not drawn) | -1.01 | – | –
15 | COc1ccc2nc(Nc3nc4ccc(NC(C)=O)cc4s3)sc2c1 | -35.5 | – | 32.6 µM [falling, single point]
16 | N#Cc1c(-c2ccc(Cl)cc2Cl)nc2n(c1=O)CCS2 | 11 | 3.26 µM [falling, partial curve] | –
17 | CCC(C(=O)N1CCN(S(=O)(=O)c2ccc(F)cc2)CC1)c1ccccc1 (stereo not drawn) | -0.417 | 4.11 µM [falling, single point] | 1.03 µM [falling, full curve, poor fit]
18 | CC(C)N1CCc2c(sc(NC(=O)c3cc4cc([N+](=O)[O-])ccc4s3)c2C(N)=O)C1 | 27.1 | 1.16 µM [rising, single point] | 0.517 µM [rising, full curve, poor fit]
19 | CC(/C=N/NC(=O)CSc1nnc(SCc2ccccc2)s1)=C\c1ccco1 | 12 | 0.58 µM [falling, single point] | –
20 | Cc1ccc(-n2[nH]c(C)c(C=NC34CN5CN(CN(C5)C3)C4)c2=O)cc1C | -13.5 | 29.1 µM [falling, single point] | –

Row | SMILES | cell number change [%] | AC50 [1] | AC50 [2]
21 | COc1cc(C)ccc1OCc1cc(C(=O)NCc2ccncc2)no1 | 50.7 | 14.6 µM [rising, partial curve] | –
22 | Cc1ccc(C(=O)Nc2nnc(S(=O)(=O)N3CCC(C)CC3)s2)cc1 | – | 23.1 µM [rising, single point] | –
23 | COc1cc(OC)c(C(=O)OCC(=O)Nc2cc(C)on2)cc1OC | -19.7 | – | –
24 | Cc1ccc(C2CC(=O)Nc3cc4c(cc32)OCO4)o1 (stereo not drawn) | 22.6 | – | 0.082 µM [rising, full curve, poor fit]
25 | O=C(NCCCO)c1cc2c(cn1)[nH]c1ccccc12 | 43 | 6.51 µM [rising, single point] | 1.46 µM [rising, full curve]
26 | CCOC(=O)C1CCCN(C(=O)CN2CCN(Cc3ccc(Cl)cc3)C2=O)C1 (stereo not drawn) | 28.4 | 29.1 µM [falling, single point] | –
27 | COc1ccc2nc(C)cc(N3CCN(c4ccccc4)CC3)c2c1 | 3.23 | 4.61 µM [falling, full curve] | –
28 | COc1ccc(CCNC(=O)CSc2nc3[nH]ncc3c(=O)[nH]2)cc1OC | – | 11.6 µM [falling, partial curve, poor fit] | –
29 | COc1cnn(-c2ccc(Br)cc2)c(=O)c1SCc1ccccc1 | -5.89 | 0.146 µM [falling, full curve, poor fit] | –
30 | COc1ccc(NC(=O)[C@@H]2CCCN2S(=O)(=O)c2cccc3cccnc23)cc1 | -13.3 | – | –
31 | COc1ccc(CCNC(=O)C2CCN(C(=O)c3ccc(Cl)cc3)CC2)cc1OC | -4.4 | 6.51 µM [falling, single point] | –
32 | O=P(O)(CP(=O)(c1ccccc1)c1ccccc1)c1ccccc1 | 5.16 | 32.6 µM [falling, single point] | –
33 | COC(=O)c1ccn(-c2nc(-c3ccco3)cc(C(F)(F)F)n2)n1 | 40.1 | 6.51 µM [rising, partial curve] | 3.66 µM [rising, full curve]
34 | CN(Cc1ccco1)C(=O)Cn1ncc2c([nH]c3ccccc32)c1=O | -19 | 0.517 µM [falling, single point] | –
35 | CCCCCc1cc(=O)oc2c(C(CCN3CCCC(C)C3)c3ccc(N(C)C)cc3)c(OC)cc(OC)c12 (stereo not drawn) | -67.1 | 1.84 µM [falling, partial curve] | 29.1 µM [falling, single point]
36 | CC(=O)c1cc(F)c(N2CCCCCC2)cc1C | -39.7 | 29.1 µM [falling, single point] | 29.1 µM [falling, single point]
37 | Cc1cccc(NS(=O)(=O)c2ccc(C(=O)NCCCN3CCOCC3)cc2)c1C | -16.4 | – | –
38 | Cc1n[nH]c(C)c1S(=O)(=O)N(CC(=O)N1CCc2ccccc21)c1ccc(C(C)C)cc1 | 16.5 | – | –
39 | Cc1ccc(S(=O)(=O)NC(=NCC(=O)O)c2ccc(F)cc2)cc1 | – | 18.4 µM [falling, single point] | –
40 | Cc1cc(-c2ccc(Cl)cc2)c2cnn(C(C)C)c2n1 | -38.7 | – | 32.6 µM [falling, single point]

Molecules above with a furan ring, fused or not (4):
Row | SMILES | cell number change [%] | AC50 [1] | AC50 [2]
19 | CC(/C=N/NC(=O)CSc1nnc(SCc2ccccc2)s1)=C\c1ccco1 | 12 | 0.58 µM [falling, single point] | –
24 | Cc1ccc(C2CC(=O)Nc3cc4c(cc32)OCO4)o1 (stereo not drawn) | 22.6 | – | 0.082 µM [rising, full curve, poor fit]
33 | COC(=O)c1ccn(-c2nc(-c3ccco3)cc(C(F)(F)F)n2)n1 | 40.1 | 6.51 µM [rising, partial curve] | 3.66 µM [rising, full curve]
34 | CN(Cc1ccco1)C(=O)Cn1ncc2c([nH]c3ccccc32)c1=O | -19 | 0.517 µM [falling, single point] | –

Further records.

Row | SMILES | cell number change [%] | AC50 [1] | AC50 [2]
41 | COc1ccc(/C=C2\SC(=O)N(CC(=O)NCCCn3ccnc3)C2=O)cc1 | 18.7 | 1.84 µM [rising, partial curve, poor fit] | 3.66 µM [rising, partial curve]
42 | O=C(C1COc2ccccc2O1)N1CCN(c2ccc(F)cc2)CC1 (stereo not drawn) | -4.7 | – | –
43 | CCN(CCCNC(=O)CCc1nc(-c2ccc(OC)cc2)no1)c1cccc(C)c1 | 18.2 | 0.103 µM [falling, full curve, poor fit] | –
44 | Cn1c(=O)c(Oc2cc(Cl)cc(Cl)c2)nc2ccccc21 | – | – | 1.46 µM [rising, partial curve]
45 | COC(C(=O)NCc1ccccc1C)c1ccccc1 (stereo not drawn) | 94.1 | 6.51 µM [falling, partial curve] | 29.1 µM [rising, single point]
46 | COc1cccc(CC(NC(C)=O)C(=O)NC2CCN(C(=O)c3ccc(Cl)cc3)CC2)c1 (stereo not drawn) | – | 29.1 µM [falling, single point] | –
47 | CC(=O)NCc1ccc(C(=O)O)cc1 | -10.9 | 0.00517 µM [falling, full curve, poor fit] | –
48 | Cc1ccc(CNc2nc(-c3cccnc3)nc3ccccc23)cc1 | -32.5 | 0.116 µM [falling, full curve, poor fit] | 0.146 µM [falling, full curve, poor fit]
49 | CN(C)CCCN(C(=O)c1ccc(N2C(=O)CCC2=O)cc1)c1nc2c(F)cccc2s1 | -38.8 | 29.1 µM [falling, single point] | –
50 | COc1ccc(C2=NN(c3ccc(C(=O)O)cc3)C(c3ccc(OC)c(OC)c3)C2)cc1 (stereo not drawn) | -12.8 | 3.66 µM [falling, partial curve, poor fit] | –
51 | COc1ccc(N2CCN(C(=O)c3ccc(-c4nc5ccccc5s4)o3)CC2)cc1 | 6.25 | 5.8 µM [rising, full curve] | –
52 | CCOC(=O)C1=C(C)NC(=O)NC1c1ccc(Cl)cc1Cl (stereo not drawn) | – | 0.82 µM [falling, full curve] | –
53 | CC(C)N1C(=O)S/C(=C/c2ccc(Sc3nc4ccccc4[nH]3)o2)C1=O | -23.2 | 29.1 µM [falling, single point] | –
54 | O=C(c1cccs1)N1CC=C(c2ccccc2)CC1 | 11 | 4.61 µM [rising, single point] | –
55 | O=S(=O)(Cc1ccccc1)c1ccccc1-c1nnc(-c2ccccc2)o1 | – | 4.11 µM [falling, single point] | –
56 | CCOCCCNC(=O)C(NC(=O)c1ccc(=O)[nH]c1)c1ccc(C)cc1 (stereo not drawn) | -48.8 | 0.651 µM [falling, partial curve, poor fit] | 1.16 µM [falling, full curve]
57 | O=C(COC(=O)Cc1ccsc1)Nc1ccc(F)cc1Cl | -2.71 | 0.291 µM [rising, partial curve, poor fit] | –
58 | COc1cc(/C=C/C(=O)O)cc(S(=O)(=O)N(CC(C)C)CC(C)C)c1OC | 6.49 | 0.58 µM [falling, single point] | –

Taken from above:
Cc1ccc(CNc2nc(-c3cccnc3)nc3ccccc23)cc1 – AC50 [2]: 0.146 µM [falling, full curve, poor fit]
COc1cc(OC)c(C(=O)OCC(=O)Nc2cc(C)on2)cc1OC – cell number change [%]: -19.7
